# Record: PubChem BioAssay AID652259 (Drosophila RNAi Screening Center, 2013)
# Screen: 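Identify new Wingless signalling regulators in fly cells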 (primary screen)
# Cell system: Drosophila clone 8 imaginal disc epithelial cells
# Knock-down reagent: long dsRNA against Drosophila genes
# Challenge: pathway stimulated by co-transfected Wingless expression plasmid
# Detection: 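Dual luciferase reads per well after Wingless plasmid stimulation: reporter firefly light and Renilla control light; activity is firefly divided by Renilla, a ratio not deposited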
# Direction: firefly reporter light: higher = more Wg reporter light, before normalisation; Renilla control light: higher = more transfected or surviving cells
# Hit rule: 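a knock-down is a candidate when at least two out of four statistical tests show it departing from its plate mean; one test alone signals a weak candidate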
# Meaning of the calls: active = candidate regulator (raises or lowers reporter); inactive = not a candidate
# The screen tested about 22,000 reagents; below is a random part of those with a known target gene and a result. In the full data, 233 (1.1%) got an active call. 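Light values are raw, unnormalised plate reads; the ratio scores behind the reporter calls were not deposited.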 A number with no mark means an inactive call. A plus sign joins genes that one reagent is predicted to hit. No sequences are given here. Not given: the amount of reagent, the time to read-out, the dose of the treatment.
Target gene,dsRNA,"reporter change call, replicate 1","firefly reporter light, replicate 1","firefly reporter light, replicate 2","Renilla control light, replicate 1","Renilla control light, replicate 2"
"Sr-CIV (Scavenger receptor class C, type IV)",DRSC00575,,3156,8342,1050,2288
ND-B17.2 (NADH dehydrogenase (ubiquinone) B17.2 subunit),DRSC00577,,2660,8251,1460,4038
Pgant3 (Polypeptide N-Acetylgalactosaminyltransferase 3),DRSC05942,,8804,,2363,
Ir52c (Ionotropic receptor 52c),DRSC21801,,3.67e5,4.18e5,1.45e5,1.60e5
CG17574,DRSC06681,,8379,,3252,
dhd (deadhead),DRSC18761,,3659,8632,883,3155
CG1896,DRSC15397,,2219,4250,978,1435
CG14200,DRSC19555,,17410,,151,
CG13603,DRSC14606,,2932,3624,900,1560
CG31704,DRSC22118,,4.65e5,4.31e5,1.72e5,2.13e5
arx (asterix),DRSC10386,,4123,,1626,
CG2116,DRSC18206,,5536,6987,1062,1450
Anp (Andropin),DRSC14112,,7977,,3084,
JMJD5 (Jumonji domain containing 5),DRSC08372,,6086,,2946,
COX6AL2 + Ir75d,DRSC10081,,9565,,2514,
CG18598,DRSC15356,,12171,,1755,
Unc-115b + p24-2 + Unc-115a,DRSC16502,,13440,,4107,
LysRS (Lysyl-tRNA synthetase),DRSC17824,,1853,7504,544,2055
CG13036 (retired record),DRSC09916,,8512,,3228,
ppk10 (pickpocket 10),DRSC01123,,20208,,10080,
CG3473,DRSC01915,,4920,11095,2064,4522
lqf (liquid facets),DRSC11363,,4242,,1019,
CG42675,DRSC12157,,6119,,2439,
CG42675,DRSC21868,,6.65e5,6.58e5,2.63e5,2.82e5
Adgf-D (Adenosine deaminase-related growth factor D),DRSC16521,,12640,,2569,
MrgBP (MRG/MORF4L binding protein),DRSC06417,,3172,5488,571,2016
CG32813,DRSC17948,,25258,,21690,
Jon99Ciii (Jonah 99Ciii),DRSC16859,,4230,,3176,
CG4653,DRSC19909,,3739,9152,1258,2832
CG4653,DRSC22857,,7.32e5,8.33e5,3.40e5,4.59e5
CG33127,DRSC00011,,20981,,12085,
Ada2b (transcriptional Adaptor 2b),DRSC16531,,23362,,4308,
Gld2 (GLD2 poly(A) polymerase),DRSC15863,,30441,,3459,
prt (portabella),DRSC16894,,16978,,8696,
shv (shriveled),DRSC00640,,6220,8907,2029,3693
shv (shriveled),DRSC22122,,8.15e5,7.51e5,3.33e5,3.97e5
Rhp (Rhophilin),DRSC20279,,17472,,7265,
"Alg2 (ALG2, alpha-1,3/1,6-mannosyltransferase)",DRSC08298,,4592,,1429,
EndoU (Endoribonuclease U-specific),DRSC15472,,2656,3362,2004,928
TrpRS (Tryptophanyl-tRNA synthetase),DRSC14097,,13035,,3228,
Nadk1a (NAD kinase 1a),DRSC05431,,27553,,23133,
Nadk1a (NAD kinase 1a),DRSC06963,,15634,,4370,
Sema2b (Semaphorin 2b),DRSC05609,,18081,,10537,
Sema2b (Semaphorin 2b),DRSC05611,,23898,,10640,
Sema2b (Semaphorin 2b),DRSC06867,,9415,,4505,
GNBP2 (Gram-negative bacteria binding protein 2),DRSC10404,,4939,,1864,
UK114,DRSC01973,,2800,7251,1217,3584
PolD3 (DNA polymerase delta subunit 3),DRSC01961,,8256,,3673,
CG11409,DRSC18579,,1677,4216,1220,1250
CG14151,DRSC10153,,8704,,4800,
CG34386,DRSC06467,Wg reporter activity raised (active),10112,,1264,
CG34386,DRSC06468,,5090,,1741,
CG13157,DRSC06282,,6374,,2643,
CG5478,DRSC15814,,20082,,4583,
msb1l,DRSC03572,,6775,,1464,
CG31633,DRSC02275,,2501,4689,1232,2476
CG11816,DRSC19428,,15994,,7352,
"Smyd3 (SET and MYND domain containing, class 3)",DRSC17744,,26001,,12221,
Reg-5 (Rhythmically expressed gene 5),DRSC04647,,12218,,2845,
Acp95EF + Spase22-23,DRSC14102,,18834,,18588,
CG11396,DRSC11654,,18451,,6368,
IFT46 (Intraflagellar transport 46),DRSC02462,,2803,7671,707,2880
CG3526,DRSC17240,,3331,,1179,
CG3526,DRSC18636,,17900,,13744,
CG7252,DRSC10789,,8485,,3812,
CG7252,DRSC21492,,4.44e5,5.40e5,1.35e5,1.41e5
CG32278 + CG14963,DRSC22203,,7.35e5,7.12e5,3.28e5,3.30e5
Ppox (Protoporphyrinogen oxidase),DRSC17033,,24320,,16256,
Ku80,DRSC02699,,2560,4039,1001,2372
nkd (naked cuticle),DRSC11376,Wg reporter activity raised (active),82416,,8347,
Atet (ABC transporter expressed in trachea),DRSC00263,,3644,4333,1281,1619
Hipk (Homeodomain interacting protein kinase),DRSC07885,,2131,,1016,
Hipk (Homeodomain interacting protein kinase),DRSC08507,,12929,,2680,
